In patent publication US20060111274A1:
Results are given in words; binding and its absence hold for the method and conditions named. Binding seen in cells or lysates may run through a third protein. Some entries that bind do so weakly or less than the wild type.

What was measured:
[1] = target: T1, V7 (a leukocyte surface protein, transmembrane protein also known as CD101) (UniProt Q93033); assay: co-immunoprecipitation from T cell lysate with anti-V7 murine antibody and goat anti-mouse IgG
T1 sequence (looked up): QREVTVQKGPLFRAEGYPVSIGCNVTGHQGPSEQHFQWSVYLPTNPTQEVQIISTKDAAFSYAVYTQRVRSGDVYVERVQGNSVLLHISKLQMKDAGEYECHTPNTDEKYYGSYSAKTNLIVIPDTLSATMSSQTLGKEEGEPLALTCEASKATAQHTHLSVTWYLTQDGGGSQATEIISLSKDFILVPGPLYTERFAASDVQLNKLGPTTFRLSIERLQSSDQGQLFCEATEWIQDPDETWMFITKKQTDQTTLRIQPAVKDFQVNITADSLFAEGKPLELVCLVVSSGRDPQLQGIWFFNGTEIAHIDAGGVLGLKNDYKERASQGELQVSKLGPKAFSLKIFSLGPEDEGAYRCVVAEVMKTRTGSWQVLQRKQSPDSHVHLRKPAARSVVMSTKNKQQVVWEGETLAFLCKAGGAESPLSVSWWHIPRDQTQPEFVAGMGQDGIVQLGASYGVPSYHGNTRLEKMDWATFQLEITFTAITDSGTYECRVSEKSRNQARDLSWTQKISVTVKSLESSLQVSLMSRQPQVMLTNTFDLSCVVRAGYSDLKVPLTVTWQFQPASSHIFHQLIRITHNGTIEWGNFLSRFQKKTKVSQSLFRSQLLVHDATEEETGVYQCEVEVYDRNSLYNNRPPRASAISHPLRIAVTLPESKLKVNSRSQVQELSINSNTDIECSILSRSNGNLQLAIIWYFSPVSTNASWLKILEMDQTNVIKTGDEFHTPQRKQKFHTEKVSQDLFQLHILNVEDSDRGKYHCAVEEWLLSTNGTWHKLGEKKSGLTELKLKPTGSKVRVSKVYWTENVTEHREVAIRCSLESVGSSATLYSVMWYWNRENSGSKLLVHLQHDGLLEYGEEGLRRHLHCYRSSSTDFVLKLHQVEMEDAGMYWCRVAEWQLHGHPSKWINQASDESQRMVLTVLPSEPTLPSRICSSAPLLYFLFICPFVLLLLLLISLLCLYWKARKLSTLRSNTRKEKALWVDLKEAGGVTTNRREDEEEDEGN

[2] = target: T1, V7 (a leukocyte surface protein, transmembrane protein also known as CD101); assay: co-immunoprecipitation from T cell lysate with anti-V7 murine monoclonal antibody and goat anti-mouse IgG

## RAF-1 kinase (from UniProt P04049 1-648) (enzyme)
[1]
  binding: binds
[2]
  binding: binds
